Measured values taken from US20170035806A1, “COMPOSITION FOR PROPHYLAXIS AND TREATMENT OF BONE DISORDERS” (Chemische Fabrik Budenheim KG, priority 2014, published 2017).
Some results were stated once for a whole list of compounds, not compound by compound. At least one structure is not confirmed: it was looked up by name or label, or the drawing left a doubt.

Test system: SaOS-2 cells
Assay: MTT colorimetric proliferation/viability assay
Assay type: cell-based, Human
Details: SaOS-2 cells in vitro
Protocol: In this assay Me was Gd. The recordings of developed formazan dye in the control (filled bar) were set to 100%. The results are expressed as means (n=10 experiments each)±SEM.
The effects of polyP•Me as well as of the single components polyP and MeCl3 on proliferation/viability of SaOS-2 cells were determined by applying the MMT colorimetric assay (MMT=3-(4,5-dimethylthiazol-2-yl)-2,5-diphenyltetrazolium bromide).
Human osteogenic sarcoma SaOS-2 cells are cultured in McCoy's medium (Biochrom, Berlin; Germany) containing 5 mM Na-phosphate and 1 mM CaCl2, supplemented with 15% heat inactivated fetal calf serum (FCS), Na-pyruvate (1 mM), Ca(NO3)2 (0.5 mM), penicillin (100 U/ml), and streptomycin (100 μg/ml), in 6-well plates (surface area 9.46 cm^2; Orange Scientifique, Braine-l'Alleud; Belgium) in a humidified incubator at 37° C. and 5% CO2. Routinely, 2×10^4 cells are added per well (total volume 3 ml).
SaOS-2 cells are seeded at a density of 2×10^4 cells per 3-ml well in a 24-multi-well plate (Orange Scientifique) and cultured for 3 days in McCoy's medium/15% FCS. Increasing concentrations of MeCl3, polyP or polyP•Me are added to the cultures. After incubation, cell proliferation is determined applying the colorimetric method based on the tetrazolium salt […].

With `[Cl][Gd]([Cl])[Cl]` [MeCl3, GdCl3] the non-toxic concentration was “at least 30 μM”.
